The numbers were not newly measured in patent US9884040B2, “Desethylamiodarone for use in cancer treatment” (PÉCSI TUDOMÁNYEGYETEM, priority 2015, dated 2018), which cites them from elsewhere.

The conditions of this series: after amiodarone in therapeutic doses; cited from earlier work.

On to `CCCCc1oc2ccccc2c1C(=O)c1cc(I)c(OCCN(CC)CC)c(I)c1` [amiodarone], for which the “Concentration in patient plasma” value is 1600 to 5300 nM.
